Reference: PMC4079325
These are yes or no findings as the source states them, for the method shown. In cells and extracts the contact can be indirect. Some binding calls cover weakened binding; strength is not graded here. Tags and fused reporters may be left off the sequences shown.

T1: human wild-type SULT4A1 (human) (UniProt Q9BR01)
T1 sequence: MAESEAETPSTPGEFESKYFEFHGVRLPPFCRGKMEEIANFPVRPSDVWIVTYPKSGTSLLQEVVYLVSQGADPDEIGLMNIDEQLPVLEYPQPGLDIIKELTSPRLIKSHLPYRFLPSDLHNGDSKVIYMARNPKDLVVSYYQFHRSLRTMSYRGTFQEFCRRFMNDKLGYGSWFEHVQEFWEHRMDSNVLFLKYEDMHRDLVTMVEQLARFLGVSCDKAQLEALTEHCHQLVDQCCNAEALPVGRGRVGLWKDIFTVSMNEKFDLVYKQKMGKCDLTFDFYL


Target: T1, human wild-type SULT4A1 (human)
Assay: co-IP; IMR-32 cells co-transfected with HA-tagged SULT4A1 and a FLAG-tagged SULT4A1 construct for 24 hr; lysis in 1% Triton X-100, 50 mM Tris pH 7.4, 150 mM NaCl, 1 mM EDTA; precipitated with anti-HA antibody and protein A agarose at 4°C; detected with anti-FLAG antibody

binding	Binder
binds	human wild-type SULT4A1 (enzyme, UniProt Q9BR01 1-284) MAESEAETPSTPGEFESKYFEFHGVRLPPFCRGKMEEIANFPVRPSDVWIVTYPKSGTSLLQEVVYLVSQGADPDEIGLMNIDEQLPVLEYPQPGLDIIKELTSPRLIKSHLPYRFLPSDLHNGDSKVIYMARNPKDLVVSYYQFHRSLRTMSYRGTFQEFCRRFMNDKLGYGSWFEHVQEFWEHRMDSNVLFLKYEDMHRDLVTMVEQLARFLGVSCDKAQLEALTEHCHQLVDQCCNAEALPVGRGRVGLWKDIFTVSMNEKFDLVYKQKMGKCDLTFDFYL
no binding	FLAG-tagged SULT4A1 TV>AE mutant (enzyme, UniProt Q9BR01 1-284) MAESEAETPSTPGEFESKYFEFHGVRLPPFCRGKMEEIANFPVRPSDVWIVTYPKSGTSLLQEVVYLVSQGADPDEIGLMNIDEQLPVLEYPQPGLDIIKELTSPRLIKSHLPYRFLPSDLHNGDSKVIYMARNPKDLVVSYYQFHRSLRTMSYRGTFQEFCRRFMNDKLGYGSWFEHVQEFWEHRMDSNVLFLKYEDMHRDLVTMVEQLARFLGVSCDKAQLEALTEHCHQLVDQCCNAEALPVGRGRVGLWKDIFAESMNEKFDLVYKQKMGKCDLTFDFYL
